The supplement of paper PMC11006884
What follows is the remainder of the data, with few or none of the targets with a hit. This is a noisy data set. Only a part is listed here, and it is no random draw.

Amino acid sequences for entries named in this document (tags omitted). A change or cut given only in a name is not applied to a line headed by its entry.
UniProt Q8TB52: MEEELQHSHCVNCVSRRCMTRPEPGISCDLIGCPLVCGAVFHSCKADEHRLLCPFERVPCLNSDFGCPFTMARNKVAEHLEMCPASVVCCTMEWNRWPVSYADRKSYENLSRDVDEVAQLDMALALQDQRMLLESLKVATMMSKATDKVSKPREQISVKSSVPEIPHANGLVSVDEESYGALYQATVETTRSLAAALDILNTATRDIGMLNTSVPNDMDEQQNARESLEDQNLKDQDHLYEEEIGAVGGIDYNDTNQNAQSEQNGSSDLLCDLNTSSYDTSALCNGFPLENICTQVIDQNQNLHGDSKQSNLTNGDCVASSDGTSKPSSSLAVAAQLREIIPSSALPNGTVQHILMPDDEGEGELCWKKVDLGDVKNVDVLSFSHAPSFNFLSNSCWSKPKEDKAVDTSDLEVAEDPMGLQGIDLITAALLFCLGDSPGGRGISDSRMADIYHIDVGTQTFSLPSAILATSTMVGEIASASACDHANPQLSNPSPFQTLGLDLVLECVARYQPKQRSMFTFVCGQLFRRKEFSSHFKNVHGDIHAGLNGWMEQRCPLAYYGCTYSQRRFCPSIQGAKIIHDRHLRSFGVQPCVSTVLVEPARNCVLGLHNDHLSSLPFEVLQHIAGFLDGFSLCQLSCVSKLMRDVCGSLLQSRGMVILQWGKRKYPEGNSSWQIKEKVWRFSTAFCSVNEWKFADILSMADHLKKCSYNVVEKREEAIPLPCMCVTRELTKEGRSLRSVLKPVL
UniProt Q8NHU6: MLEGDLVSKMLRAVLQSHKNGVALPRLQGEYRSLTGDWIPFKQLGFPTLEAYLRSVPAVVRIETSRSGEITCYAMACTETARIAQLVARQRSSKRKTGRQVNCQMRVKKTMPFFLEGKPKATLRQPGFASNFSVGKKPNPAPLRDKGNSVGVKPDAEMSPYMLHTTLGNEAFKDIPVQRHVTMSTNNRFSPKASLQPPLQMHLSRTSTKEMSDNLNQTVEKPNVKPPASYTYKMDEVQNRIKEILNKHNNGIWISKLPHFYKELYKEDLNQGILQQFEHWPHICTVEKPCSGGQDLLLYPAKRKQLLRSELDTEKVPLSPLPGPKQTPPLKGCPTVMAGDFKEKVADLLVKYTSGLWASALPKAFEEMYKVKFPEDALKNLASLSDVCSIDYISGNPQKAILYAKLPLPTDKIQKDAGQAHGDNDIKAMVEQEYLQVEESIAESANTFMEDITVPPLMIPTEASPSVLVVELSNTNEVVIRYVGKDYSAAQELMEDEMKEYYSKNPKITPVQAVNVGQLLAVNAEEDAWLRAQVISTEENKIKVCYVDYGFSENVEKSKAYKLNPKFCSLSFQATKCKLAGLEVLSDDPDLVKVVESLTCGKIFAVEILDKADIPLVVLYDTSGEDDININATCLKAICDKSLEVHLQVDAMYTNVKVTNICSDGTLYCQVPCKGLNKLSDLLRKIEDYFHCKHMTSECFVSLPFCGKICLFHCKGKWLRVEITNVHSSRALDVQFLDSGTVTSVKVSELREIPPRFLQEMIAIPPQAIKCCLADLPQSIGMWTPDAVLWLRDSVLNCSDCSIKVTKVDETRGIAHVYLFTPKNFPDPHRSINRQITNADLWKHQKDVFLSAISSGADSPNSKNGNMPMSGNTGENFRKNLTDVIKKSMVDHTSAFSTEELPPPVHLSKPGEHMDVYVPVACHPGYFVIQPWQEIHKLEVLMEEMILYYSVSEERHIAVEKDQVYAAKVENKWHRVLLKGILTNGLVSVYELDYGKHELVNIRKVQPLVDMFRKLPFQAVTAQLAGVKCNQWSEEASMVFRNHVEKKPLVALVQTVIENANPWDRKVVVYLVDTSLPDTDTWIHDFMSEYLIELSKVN
UniProt Q8N6R0: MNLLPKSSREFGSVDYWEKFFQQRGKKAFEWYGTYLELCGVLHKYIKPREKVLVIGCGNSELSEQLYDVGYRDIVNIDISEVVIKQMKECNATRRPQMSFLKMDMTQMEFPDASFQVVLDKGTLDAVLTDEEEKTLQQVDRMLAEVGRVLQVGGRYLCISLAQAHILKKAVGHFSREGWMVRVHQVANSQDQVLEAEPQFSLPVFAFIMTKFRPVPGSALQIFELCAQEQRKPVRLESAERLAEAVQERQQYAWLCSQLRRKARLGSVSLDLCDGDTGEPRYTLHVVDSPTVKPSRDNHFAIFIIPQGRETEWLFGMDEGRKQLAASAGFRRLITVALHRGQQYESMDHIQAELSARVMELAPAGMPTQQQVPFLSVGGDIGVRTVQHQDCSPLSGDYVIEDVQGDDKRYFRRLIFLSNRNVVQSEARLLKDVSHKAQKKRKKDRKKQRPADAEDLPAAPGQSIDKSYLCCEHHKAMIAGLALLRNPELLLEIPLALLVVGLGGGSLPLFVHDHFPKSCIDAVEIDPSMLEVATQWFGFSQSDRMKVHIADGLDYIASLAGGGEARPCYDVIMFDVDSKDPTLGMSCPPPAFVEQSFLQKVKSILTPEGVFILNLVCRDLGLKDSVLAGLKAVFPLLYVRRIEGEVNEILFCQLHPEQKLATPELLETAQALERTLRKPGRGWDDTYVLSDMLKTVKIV
UniProt Q8WUM4: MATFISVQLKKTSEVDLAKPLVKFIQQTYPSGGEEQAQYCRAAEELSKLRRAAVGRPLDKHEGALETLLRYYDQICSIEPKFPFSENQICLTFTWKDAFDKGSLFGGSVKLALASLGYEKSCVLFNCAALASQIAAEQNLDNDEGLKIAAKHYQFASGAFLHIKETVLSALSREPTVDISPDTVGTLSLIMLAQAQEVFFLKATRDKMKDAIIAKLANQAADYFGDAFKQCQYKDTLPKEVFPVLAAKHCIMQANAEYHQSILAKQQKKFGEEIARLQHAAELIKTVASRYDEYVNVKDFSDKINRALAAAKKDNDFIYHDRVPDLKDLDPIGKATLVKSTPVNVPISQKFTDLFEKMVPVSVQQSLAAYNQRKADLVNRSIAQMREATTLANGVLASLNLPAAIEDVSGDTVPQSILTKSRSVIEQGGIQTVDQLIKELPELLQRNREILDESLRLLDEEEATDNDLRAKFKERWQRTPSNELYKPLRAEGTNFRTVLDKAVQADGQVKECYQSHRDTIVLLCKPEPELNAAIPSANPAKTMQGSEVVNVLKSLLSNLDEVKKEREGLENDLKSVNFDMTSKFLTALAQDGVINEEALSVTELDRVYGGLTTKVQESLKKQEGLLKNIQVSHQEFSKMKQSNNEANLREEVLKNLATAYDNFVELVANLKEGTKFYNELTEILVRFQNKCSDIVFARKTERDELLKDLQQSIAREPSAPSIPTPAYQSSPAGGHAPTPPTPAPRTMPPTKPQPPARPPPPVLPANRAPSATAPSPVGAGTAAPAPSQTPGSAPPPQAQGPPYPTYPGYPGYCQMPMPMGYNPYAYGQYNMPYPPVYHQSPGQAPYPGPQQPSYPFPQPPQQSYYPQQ
UniProt Q8NC96: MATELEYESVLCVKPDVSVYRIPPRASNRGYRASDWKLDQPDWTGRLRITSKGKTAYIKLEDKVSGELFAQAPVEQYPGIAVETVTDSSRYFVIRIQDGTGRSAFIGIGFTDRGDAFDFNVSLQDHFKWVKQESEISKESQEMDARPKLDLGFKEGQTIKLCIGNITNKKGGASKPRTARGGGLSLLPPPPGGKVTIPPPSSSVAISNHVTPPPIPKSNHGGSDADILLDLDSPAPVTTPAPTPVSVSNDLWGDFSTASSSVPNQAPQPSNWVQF
UniProt Q8TF05: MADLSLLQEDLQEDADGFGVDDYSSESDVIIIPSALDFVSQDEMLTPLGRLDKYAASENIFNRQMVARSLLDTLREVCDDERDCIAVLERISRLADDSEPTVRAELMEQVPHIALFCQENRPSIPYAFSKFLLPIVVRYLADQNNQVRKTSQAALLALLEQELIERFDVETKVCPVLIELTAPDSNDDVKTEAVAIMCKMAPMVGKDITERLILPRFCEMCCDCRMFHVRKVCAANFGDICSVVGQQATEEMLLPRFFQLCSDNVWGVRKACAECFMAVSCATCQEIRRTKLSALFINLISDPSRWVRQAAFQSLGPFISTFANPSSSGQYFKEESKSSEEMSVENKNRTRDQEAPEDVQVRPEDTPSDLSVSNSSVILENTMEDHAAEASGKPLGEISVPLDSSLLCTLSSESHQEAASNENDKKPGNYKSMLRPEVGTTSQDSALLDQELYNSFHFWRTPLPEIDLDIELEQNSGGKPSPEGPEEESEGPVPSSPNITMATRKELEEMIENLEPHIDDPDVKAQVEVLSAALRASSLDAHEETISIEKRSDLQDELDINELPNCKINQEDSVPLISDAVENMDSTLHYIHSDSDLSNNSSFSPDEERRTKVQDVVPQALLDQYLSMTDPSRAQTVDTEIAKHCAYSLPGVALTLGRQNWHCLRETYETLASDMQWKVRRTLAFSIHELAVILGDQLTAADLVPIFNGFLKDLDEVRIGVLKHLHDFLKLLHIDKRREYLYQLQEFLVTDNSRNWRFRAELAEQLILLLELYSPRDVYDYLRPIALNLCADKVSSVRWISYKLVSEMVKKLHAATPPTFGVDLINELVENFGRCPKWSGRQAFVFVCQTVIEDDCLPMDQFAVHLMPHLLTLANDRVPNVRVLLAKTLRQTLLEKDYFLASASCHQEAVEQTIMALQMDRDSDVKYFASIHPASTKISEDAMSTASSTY
UniProt Q8NDH3: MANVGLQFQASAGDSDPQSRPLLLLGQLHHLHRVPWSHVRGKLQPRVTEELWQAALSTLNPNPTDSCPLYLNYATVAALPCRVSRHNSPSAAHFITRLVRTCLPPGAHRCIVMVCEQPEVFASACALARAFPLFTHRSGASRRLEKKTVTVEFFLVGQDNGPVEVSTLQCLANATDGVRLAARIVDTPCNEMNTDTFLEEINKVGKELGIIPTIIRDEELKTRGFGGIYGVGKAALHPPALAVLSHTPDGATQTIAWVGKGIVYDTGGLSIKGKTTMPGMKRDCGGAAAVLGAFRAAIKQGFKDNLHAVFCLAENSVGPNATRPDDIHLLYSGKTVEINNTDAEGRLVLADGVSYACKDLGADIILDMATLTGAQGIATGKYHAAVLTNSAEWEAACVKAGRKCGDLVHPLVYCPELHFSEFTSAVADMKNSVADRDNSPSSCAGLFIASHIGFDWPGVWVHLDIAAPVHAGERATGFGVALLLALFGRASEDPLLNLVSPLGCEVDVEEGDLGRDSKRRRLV
UniProt Q8NF37: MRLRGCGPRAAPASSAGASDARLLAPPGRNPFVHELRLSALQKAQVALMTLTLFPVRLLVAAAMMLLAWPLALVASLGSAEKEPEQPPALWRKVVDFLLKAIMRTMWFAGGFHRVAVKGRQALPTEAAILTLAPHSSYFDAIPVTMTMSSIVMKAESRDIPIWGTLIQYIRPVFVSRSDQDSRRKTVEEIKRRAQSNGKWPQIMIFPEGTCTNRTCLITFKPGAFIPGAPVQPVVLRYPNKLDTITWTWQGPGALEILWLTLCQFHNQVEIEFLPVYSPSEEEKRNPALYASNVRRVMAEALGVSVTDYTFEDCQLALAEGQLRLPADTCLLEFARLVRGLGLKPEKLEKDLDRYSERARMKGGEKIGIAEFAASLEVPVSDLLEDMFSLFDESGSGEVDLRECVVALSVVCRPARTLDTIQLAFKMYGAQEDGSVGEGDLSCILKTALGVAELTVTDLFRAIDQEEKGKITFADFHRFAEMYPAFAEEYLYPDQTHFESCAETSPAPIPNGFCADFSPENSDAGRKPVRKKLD
UniProt Q8TDD1, whole entry, looked up: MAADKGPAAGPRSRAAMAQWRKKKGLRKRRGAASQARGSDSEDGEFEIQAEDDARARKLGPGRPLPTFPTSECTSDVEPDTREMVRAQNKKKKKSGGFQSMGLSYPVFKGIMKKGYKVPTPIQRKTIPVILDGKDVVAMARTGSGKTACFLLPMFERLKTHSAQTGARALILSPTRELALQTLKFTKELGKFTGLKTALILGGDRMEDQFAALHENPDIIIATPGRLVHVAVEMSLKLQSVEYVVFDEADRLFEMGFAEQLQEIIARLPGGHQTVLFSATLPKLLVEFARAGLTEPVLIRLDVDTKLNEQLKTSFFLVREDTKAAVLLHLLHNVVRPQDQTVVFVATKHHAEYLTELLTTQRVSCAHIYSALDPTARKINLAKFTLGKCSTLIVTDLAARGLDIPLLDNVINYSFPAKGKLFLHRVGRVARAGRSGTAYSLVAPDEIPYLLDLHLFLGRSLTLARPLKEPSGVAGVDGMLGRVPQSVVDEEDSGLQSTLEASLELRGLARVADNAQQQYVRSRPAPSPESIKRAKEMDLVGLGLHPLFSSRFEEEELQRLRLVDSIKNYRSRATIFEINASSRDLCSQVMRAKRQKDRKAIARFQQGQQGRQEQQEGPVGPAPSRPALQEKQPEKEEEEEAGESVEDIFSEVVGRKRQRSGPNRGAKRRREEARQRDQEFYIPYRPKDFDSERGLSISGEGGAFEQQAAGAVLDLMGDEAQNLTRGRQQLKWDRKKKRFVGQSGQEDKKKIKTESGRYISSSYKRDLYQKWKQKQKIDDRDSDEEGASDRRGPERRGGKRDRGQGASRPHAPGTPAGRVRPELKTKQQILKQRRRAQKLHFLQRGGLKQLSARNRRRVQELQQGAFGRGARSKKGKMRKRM

compound: COC(=O)/C=C/c1ccccc1 [methyl cinnamate]; assay: log2 ratio of iodoacetamide-alkyne labeling of the cysteine site, DMSO over compound (competition); higher = stronger covalent engagement of the cysteine by the compound, active = 1 or more; conditions: 500 µM; treatment time 1 h; system: HEK293T cell lysate
Summary of the method: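 HEK293T lysate (2 mg/mL) was incubated with electrophile (500 µM) or vehicle for 1 h at ambient temperature and then with iodoacetamide alkyne for 1 h. Labelled proteins were clicked to sCIP-TMT reagents, pooled, digested, enriched on streptavidin and measured by Orbitrap Eclipse LC-MS/MS with FAIMS, with FragPipe quantification. The per-cysteine log2 competition ratio is mean control-channel reporter intensity over mean compound-channel reporter intensity. Across three replicates with duplicate channels, cysteines quantified in only one replicate were excluded.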

| Target | log2 ratio of iodoacetamide-alkyne labeling |
| --- | --- |
| WDTC1 C312 (UniProt Q8N5D0) | inactive: 0.235 |
| FBXO30 C317 (UniProt Q8TB52) | inactive: 0.443 |
| LRRC47 C450 (UniProt Q8N1G4) | inactive: -0.395 |
| IPO4 C400 (UniProt Q8TEX9) | inactive: 0.623 |
| IPO4 C735 (UniProt Q8TEX9) | inactive: 0.0259 |
| TDRD7 C1029 (UniProt Q8NHU6) | inactive: 0.369 |
| UniProt Q8N6R0_C273 | inactive: 0.133 |
| CMAS C422 (UniProt Q8NFW8) | inactive: 0.326 |
| TRUB1 C269 (UniProt Q8WWH5) | inactive: -0.091 |
| ZNF687 C339 (UniProt Q8N1G0) | inactive: 0.357 |
| MICALL1 C597 (UniProt Q8N3F8) | inactive: 0.402 |
| RPTOR C36 (UniProt Q8N122) | inactive: 0.221 |
| SYNE2 C1235 (UniProt Q8WXH0) | inactive: 0.0451 |
| THOC2 C743 (UniProt Q8NI27) | inactive: -0.091 |
| PDCD6IP C250 (UniProt Q8WUM4) | inactive: 0.214 |
| GADD45GIP1 C124 (UniProt Q8TAE8) | inactive: 0.139 |
| NECAP1 C162 (UniProt Q8NC96) | inactive: 0.527 |
| ARFGAP1 C96 (UniProt Q8N6T3) | inactive: 0.217 |
| ARFGAP1 C351 (UniProt Q8N6T3) | inactive: 0.247 |

| Target | log2 ratio of iodoacetamide-alkyne labeling |
| --- | --- |
| ASCC3 C366 (UniProt Q8N3C0) | inactive: 0.0966 |
| PPP4R1 C78 (UniProt Q8TF05) | inactive: -0.00764 |
| SHROOM3 C1951 (UniProt Q8TF72) | inactive: -0.0899 |
| RPTOR C86 (UniProt Q8N122) | inactive: 0.0547 |
| TTC5 C439 (UniProt Q8N0Z6) | inactive: -0.248 |
| UniProt Q8NBJ5_C203 | inactive: 0.269 |
| NPEPL1 C504 (UniProt Q8NDH3) | inactive: -0.024 |
| SLC25A40 C142 (UniProt Q8TBP6) | inactive: 0.498 |
| LPCAT1 C330 (UniProt Q8NF37) | inactive: 0.285 |
| PARD3 C806 (UniProt Q8TEW0) | inactive: 0.128 |
| LPCAT1 C216 (UniProt Q8NF37) | inactive: -0.146 |
| GPT2 C477 (UniProt Q8TD30) | inactive: 0.286 |
| FLAD1 C496 (UniProt Q8NFF5) | inactive: 0.105 |
| UniProt Q8N4M1_C3 | inactive: 0.375 |
| DDX54 C389 (UniProt Q8TDD1) | inactive: -0.0673 |
| ATG4A C217 (UniProt Q8WYN0) | inactive: 0.177 |
| UniProt Q8WYL5_C626 | inactive: 0.271 |
| SPATA5 C291 (UniProt Q8NB90) | inactive: -0.13 |

No new results follow: entries from further up.

| Target | log2 ratio of iodoacetamide-alkyne labeling |
| --- | --- |
| UniProt Q8NBJ5_C203 | inactive: 0.269 |
| NPEPL1 C504 (UniProt Q8NDH3) | inactive: -0.024 |
| SLC25A40 C142 (UniProt Q8TBP6) | inactive: 0.498 |
